# Tested on: E. coli expressing OXA-48 (E. coliOXA-48)
# Test: Ampicillin MIC synergy assay
# Format: cell-based
# Details: Cmpd 0 μg/ml (inhibitor-less control of the respective column)
compound,measurement,value
"CC1(C)S[C@@H]2[C@H](NC(=O)[C@H](N)c3ccccc3)C(=O)N2[C@H]1C(=O)O [Ampicillin, ampicillin]",Ampicillin MIC for E. coliOXA-48,1024 µg/mL
